The whole screen tested about 52,000 sequences, of which about 210 (0.4%) were called active.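 Rule for the calls: active = gene whose silencing raises cell survival under the drug, median off-target-corrected z-score across its silencing RNAs 2 or more; inactive = the rest.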 The list shows a part of the results.

This assay in a line: Resistance to Poly (ADP-Ribose) Polymerase inhibitor: Gene Identification via Genome-wide siRNA Screen. The following applies: mouse BRCA2 R2336H ES cells, olaparib, CellTiter-Glo viability; active compounds read high. The gist of the method: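 Genome-wide siRNA screen (3 siRNAs/gene, 20 nM) in mouse ES cells carrying hypomorphic BRCA2 R2336H; olaparib 500 nM added 48 h post-transfection, CellTiter-Glo viability 72 h later. Normalized to plate-median negative control; MAD z-scores, gene median, seed-adjusted.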
Regarding “CGAGUGGCUUUUAAAAGGUTT against 2410193C02Rik”, the z-score was inactive: -0.156.

As for GGAACUGAUGAUGGACCAGTT against Slc4a1, the z-score was inactive: -0.192.

For GCUAUGCAAAUGGUGUCAATT against Fcnb, the z-score is inactive: 1.47.

“GGAGAUUAUCACAACUAUUTT against 1200013B08Rik”: the z-score was inactive: -0.638.

Regarding GGAGUUUCGGGAGUUCAACTT against Jmjd2c, the z-score was inactive: -0.411.

Consider “CCAUCACUAGUGAUCAUUATT against D930018N13”, for which the z-score is inactive: -0.778.

On to GCGAGGUAUUUUCUUAGUATT against Yes, for which the z-score is inactive: 0.421.

As to GGAACAAGAAGACUGUGAATT against Pcnt2, the z-score was inactive: -0.532.

Turning to GGUUGCUGUUUUGAUGACATT against Tff1, the z-score was inactive: -0.322.

Regarding GGCUUUUUUCUGUCCCAAUTT against Clcn6, the z-score is inactive: -1.76.

For the sequence GCAUCCACACGGUUAAUCUTT against Tmeff2, the z-score was inactive: 0.309.

GCAGAAAUUAACAAGUCUCTT against Kif2c: the z-score is inactive: 0.837.

On to GGCAGAUUUGGGUAAAAUUTT against Eif2s3y, for which the z-score is inactive: -3.57.

On to “GCGAACCCUAAGUAAGAAGTT against 2610101N10Rik”, for which the z-score was inactive: 1.54.

For GGGAUAUGAAUGGAUAUUCTT against Ptk9, the z-score is inactive: 0.0904.

As for “GGAUCUCAUGGAGGAGAAUTT against D5Ertd593e”, the z-score was inactive: 0.251.

With GGGUUUAUAAAACUGAAGUTT against Cav2, the z-score was inactive: 0.337.

Consider GGAUGUUCUCAAACUACAATT against Aof1, for which the z-score is inactive: -0.56.

Regarding CCAUUGCUAUCAACACUAATT against Alox5, the z-score is inactive: 0.864.

For “GGCCAGAAUAAGUUAAAUGTT against 2610300B10Rik”, the z-score was inactive: -1.65.

For the sequence GCUAUCUUGGUGGAUCUAGTT against Tubb5, the z-score is inactive: -2.06.

On to GGUUGUCUUUCAUCGACUCTT against Fbxo5, for which the z-score is inactive: 0.654.

On to GCUAAAGCGGAAACCUAAGTT against Whsc2, for which the z-score was inactive: 0.244.

Take CCUGUCACAGAUGUAUGUGTT against Rnf149: the z-score was inactive: 0.676.

With GCUGGGCUACAAUACAUAUTT against Fgf3, the z-score is inactive: -0.696.

Consider GGACACCACGGAGUAUUUUTT against Mgat3, for which the z-score was inactive: -0.197.

Consider CGGCUAAAUGCAAGUAAAGTT against Rgma, for which the z-score was inactive: -1.72.

GGAUUUGGAUUUGGAUUUUTT against Dsipi: the z-score was inactive: -0.439.

Take GGGACUUCGCUAUGCAGUGTT against AW125391: the z-score was inactive: 1.99.

Turning to GCAUCUAGUGACUGUCAAUTT against Sbp, the z-score was inactive: -0.27.

For the sequence “GGCAAACUCUUCCGAUGCUTT against 0610030H11Rik”, the z-score was inactive: 0.217.

Regarding GGCAACACCAUCACCGAGATT against Ndnl2, the z-score was inactive: 0.0835.

Take “GGUGAGGUUAUUUCAAUACTT against 0610010F05Rik”: the z-score is inactive: -0.271.

Consider “GGAGUCUACCAUGUGAUCUTT against 2410001H17Rik”, for which the z-score is inactive: -1.79.

Regarding GGGUUUUUCAAGAUAAACCTT against Nudt2, the z-score is inactive: -0.0764.

Take GGAAUCUGCUGAGGUUUAUTT against Cidea: the z-score is inactive: 0.313.

Regarding GGACAUGACCUUAUUUGGATT against F2rl3, the z-score is inactive: -0.311.

Consider CUUACCACCCUGAGUUUCATT against Olfr1066, for which the z-score was inactive: -0.625.

With GGUCUACGCGCUCUAUGAATT against Gpr150, the z-score is inactive: -0.59.

Regarding GGAGGUUUUUUUGUUUUGUTT against Serpinb13, the z-score was inactive: 0.331.

As for GCAACUAUACUGGACAAUUTT against Olfr328, the z-score was inactive: -1.64.

Turning to GGUGAUGUGGGUCUUGUGATT against Leng4, the z-score is inactive: -1.45.

As to GUUCGUGCGGGACAUGAUCTT against Rpl36, the z-score was inactive: -3.11.

In the case of GGUUUGUUUUUGUUCGUUUTT against Pscdbp, the z-score was inactive: 0.518.

For CCACAUACUCUAAUGAAGUTT against Casp1, the z-score is inactive: -0.154.

For GCUUCAUAUUGCUAGGAAATT against Chrd, the z-score is inactive: -0.0253.

Consider GCAGAUGCGCUUGGAACUUTT against Pde4b, for which the z-score is inactive: 2.25.

For “GCGACUGGGAGAGAUAAGATT against A130022J15Rik”, the z-score was inactive: 1.03.

GGGAGGGUGUGCAAAAGUUTT against Arf4l: the z-score is inactive: -0.928.

For “CCUUGGCAGGUAUAGUGUUTT against 1200016C12Rik”, the z-score was inactive: -0.753.

Consider GGAAGGAUGAUUUUCAGAUTT against Mcf2, for which the z-score is inactive: 0.49.

For CCUUAUACGAAUGCCAUUCTT against Eed, the z-score is inactive: 0.678.

As for GGAUUCGAGCAGUUAGUGATT against Ikbkg, the z-score is inactive: -0.302.

As to GCGUAUUGGGCAGAUCAAATT against Slit1, the z-score was inactive: 0.0897.

As to GGUGACAUAUUUGAAGUGGTT against Dmwd, the z-score is inactive: -0.372.

On to “GGUCGUUCAGAAGCACCAGTT against 2410004H02Rik”, for which the z-score was inactive: -0.0483.

Regarding CCGUCAAUCUUUAUACCACTT against Frzb, the z-score was inactive: -0.326.

Turning to GGCGUAUUUGUCAUUUCUUTT against AV340375, the z-score is inactive: -1.16.

As for “GACCCUGUCCUACAUGUUATT against 2900027G03Rik”, the z-score is inactive: 0.787.

On to GGGCUCUGUGGAAAUCAUGTT against AB030190, for which the z-score is inactive: 1.79.

Regarding “GGAACUGUUGAAGAAACUGTT against 1700080E11Rik”, the z-score is inactive: -0.0208.

With “GGGCAAAAACAAGCAAAAATT against D15Ertd366e”, the z-score was inactive: 1.15.

UGUCAACUGACUGUAGUAATT against Zmynd12: the z-score is inactive: 1.31.

Consider GCAUGCGCAUGUCAUUGAATT against Zdhhc1, for which the z-score is inactive: -0.278.

Take “GGCUGCAAGCAAAAAUAGATT against 1700029J07Rik”: the z-score was inactive: -0.432.

With “CCCAGCUAUGCGAUCUUAATT against 1300003B13Rik”, the z-score was inactive: -1.51.

On to GGACUGUUGUAUUUGUGUGTT against Bmper, for which the z-score is inactive: -0.936.

Regarding CCACAAUUACCCAGUAUGATT against Olfr498, the z-score was inactive: 0.677.

As for GCACUUACCUAACACUAUCTT against Sva, the z-score was inactive: 0.172.

Regarding GGAGAAAACUCAUGGCCCUTT against Prkag3, the z-score is inactive: 1.12.

As for “CCUACGAGUUCAUCGUGUATT against 5730438N18Rik”, the z-score was inactive: -1.51.

Regarding “CGAAGACGUAAUUACGAAATT against 2610311B01Rik”, the z-score is inactive: 0.0445.

CGACUCUUGCCUGUUCGUGTT against Thsd6: the z-score was inactive: -1.34.

For the sequence GCAAGACAAGUUCUACGAUTT against Csad, the z-score is inactive: 0.728.

As for “GGUAAGUUAAAUGAUGACATT against 5830402J09”, the z-score is inactive: -1.79.

On to CCUUUUAAGUUCCUCCCACTT against Pdxp, for which the z-score is inactive: 0.634.

Regarding GCUCCUCACUUAUUGCCCATT against Zfp354b, the z-score is inactive: -0.0507.

Consider GCGUGGAUCAACUCAUGGATT against Apoa1bp, for which the z-score was inactive: 0.777.

As for GGCUUUUGAGCUGGUCUUCTT against Ntn3, the z-score is inactive: -0.649.

Take GGAAAGCAGACUUCUAAAGTT against Pdgfc: the z-score is inactive: 0.43.

Regarding “GGCAGAUCAUUGGAUUCUATT against 0610009M14Rik”, the z-score was inactive: -2.06.

For the sequence GAAGAGAAUGGAGAGAGAGTT against Vpreb2, the z-score was inactive: -0.0536.

As for GCCUGCUUUGGAAAAAUCATT against Akr1c12, the z-score is inactive: 0.374.

For the sequence “GGACGUGAAGUGAAGUCAUTT against 1810009N02Rik”, the z-score was inactive: 3.33.

In the case of “CCUCAGGUGUGUUUACAACTT against A230083G16Rik”, the z-score is inactive: 0.61.

Consider CCCACAGGACUCAUUAACATT against Rab4a, for which the z-score is inactive: 1.36.

As to GGAAUAUCUUCUGAUUGUCTT against Dncl2b, the z-score was inactive: -2.18.

Turning to CGUAAGGCCUAAGGUUAUUTT against Leng1, the z-score was inactive: -0.274.

As for GGAUCUACUAGGAAAGAAATT against Serpini1, the z-score is inactive: -1.9.

Regarding GCCUUUAUACAAUUAGACUTT against Has3, the z-score is inactive: 1.28.

Consider GGCCAACAUGCUAUACUUCTT against Stat2, for which the z-score was inactive: -0.117.

In the case of “GCUUAAGUGCAGUAAUAUCTT against 4932411N23Rik”, the z-score is inactive: 0.0708.

Turning to CCAGAAAUUGACAAAAAGUTT against Etfa, the z-score was inactive: 0.881.

With GCCGAUGAACCAAUGGAACTT against Psma1, the z-score is inactive: -1.42.

GGAACCAAUCAGUUGGUUATT against Taf7: the z-score is inactive: 1.04.

Regarding CGUAUUUUUACUGGUUGGGTT against LOC381062, the z-score is inactive: -0.378.

As to GGAGAUCUUCAACUGCCACTT against Rps6kl1, the z-score is inactive: 0.463.

For GGGAGUGUAUAAACCUCGGTT against Vdac2, the z-score was inactive: 0.613.

Regarding GAUAUGUGCACAAUUCUGCTT against V1ri4, the z-score is inactive: -0.638.

As for GGAAAAACAAAUUCAGCAUTT against Suhw3, the z-score was inactive: 0.586.

Regarding GCCUAGAAUCAAUGGAACCTT against Olfr402, the z-score is inactive: 1.06.

Take GGCAGAAGACCAAAAUUGGTT against Pmm2: the z-score was inactive: -0.489.

With “GGUGCUCUCAAGUGGGAUUTT against 4921507A12”, the z-score was inactive: 0.135.

For GGUUUCCAACAACAUCAAATT against Hsd17b12, the z-score is inactive: 1.7.

These data come from PubChem BioAssay AID1347423 (Functional Genomics Laboratory (NCATS/FGL), 2020).
